Laboratory results reported in PubChem BioAssay AID328 (DTP/NCI, 2004).
The list shows only some results of the screen, not a fair sample: it is rich in T/C values a quarter to a half above the control, in often repeated tests (any T/C) and in doses without a T/C. Further doses and runs are listed elsewhere. T/C gives the treated animals as a percentage of the vehicle group. Some doses have a count of surviving animals in place of a T/C: the source files T/C as zero there, which appears to mark a toxic dose or a test without result, not a measured value. Some survivor counts are full or nearly so, which does not show that the dose was tolerated: survival well below the control is almost never listed, so the zero probably covers shortened survival too. Counts of survivors are from the toxicity check (mostly the fifth day) where no day follows; animals may have died later. Schedule codes are those of the source, taken here to give the interval after Q, in days (D) or hours (H), and the number of doses after X. Where survival is the endpoint, the PubChem record calls one and a half times the control and up active, and a quarter to a half above the control has no call in these data; cut-offs in other NCI protocols can differ. Some T/C values carry the count of animals alive at the toxicity check (mostly the fifth day); where none is given, no animal had died by that day.

System: BDF1 mice, P388 leukemia ip, median survival T/C
Experiment: NCI In Vivo Anticancer Drug Screen. Data for tumor model P388 Leukemia (intraperitoneal) in B6D2F1 (BDF1) mice
Conditions: T/C endpoint: median survival time, higher T/C = longer survival
Outline: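 Reported as T/C, where T is the survival measurement in dosed animals and C the same measurement in vehicle controls.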

[1] = dose: 200.0 mg/kg/injection, schedule: Q01DX009 (ip), vehicle: saline with Tween-80
[2] = dose: 300.0 mg/kg/injection, schedule: Q01DX009 (ip), vehicle: saline with Tween-80
[3] = dose: 400.0 mg/kg/injection, schedule: Q01DX009 (ip), vehicle: saline with Tween-80
[4] = dose: 50.0 mg/kg/injection, schedule: Q01DX009 (ip), vehicle: saline with Tween-80
[5] = dose: 100.0 mg/kg/injection, schedule: Q01DX009 (ip), vehicle: saline with Tween-80
[6] = dose: 200.0 mg/kg/injection, schedule: Q04DX003 (ip), vehicle: saline with Tween-80
[7] = dose: 400.0 mg/kg/injection, schedule: Q04DX003 (ip), vehicle: saline with Tween-80

**Q.** How did the T/C [1] turn out when O=C1CC(c2ccc(Cl)cc2)NC(c2ccc(Cl)cc2)C1 (configuration not stated) was run?
**A.** 131 % of control [5 of 6 alive]

**Q.** What about the survivor count [2] of the same compound?
**A.** 3 of 6

**Q.** And the T/C [3]?
**A.** 128 % of control [5 of 6 alive]

**Q.** For Cc1ccc(S(=O)c2ccc([N+](=O)[O-])c3nonc23)cc1 (configuration not stated), which survivor count (dose: 25.0 mg/kg/injection, schedule: Q01DX009 (ip), vehicle: saline with Tween-80) is on record?
**A.** 5 of 7

**Q.** What about the survivor count [4] of the same compound?
**A.** 2 of 7

**Q.** What about the survivor count [5] of the same compound?
**A.** 0 of 7

**Q.** O=C1C=CC(=O)N1c1ccc([N+](=O)[O-])cc1 was tested. Which survivor count (dose: 21.0 mg/kg/injection, schedule: Q01DX009 (ip), vehicle: Klucel (hydroxypropylcellulose) (HPC)) did it give?
**A.** 2 of 6

**Q.** What about the survivor count (dose: 30.0 mg/kg/injection, schedule: Q04DX003 (ip), vehicle: Klucel (hydroxypropylcellulose) (HPC)) of the same compound?
**A.** 1 of 6

**Q.** And the survivor count [4]?
**A.** 5 of 6

**Q.** What about the survivor count [5] of the same compound?
**A.** 2 of 6

**Q.** And the survivor count [1]?
**A.** 0 of 6

**Q.** With Nc1nc(C=O)c(-c2cccc3ccccc23)c(=O)[nH]1 as the compound, how does the T/C [6] read?
**A.** 127 % of control

**Q.** Which survivor count (dose: 3.12 mg/kg/injection, schedule: Q01DX005 (ip), vehicle: saline) does the source give for C=CCc1c2[n+](cc3c(OC)c(OC)ccc13)CCc1cc3c(cc1-2)OCO3 here?
**A.** 6 of 6

**Q.** What about the survivor count (dose: 6.25 mg/kg/injection, schedule: Q01DX005 (ip), vehicle: saline) of the same compound?
**A.** 6 of 6

**Q.** And the survivor count (dose: 12.5 mg/kg/injection, schedule: Q01DX005 (ip), vehicle: saline)?
**A.** 0 of 6

**Q.** And the survivor count (dose: 50.0 mg/kg/injection, schedule: Q01DX005 (ip), vehicle: saline with Tween-80)?
**A.** 0 of 6

**Q.** And the survivor count (dose: 100.0 mg/kg/injection, schedule: Q01DX005 (ip), vehicle: saline with Tween-80)?
**A.** 0 of 6

**Q.** What about the survivor count (dose: 200.0 mg/kg/injection, schedule: Q01DX005 (ip), vehicle: saline with Tween-80) of the same compound?
**A.** 0 of 6

**Q.** O=C(O)c1ccccc1Nc1ccc(Br)cc1 was tested. Which survivor count (dose: 200.0 mg/kg/injection, schedule: Q01DX001 (ip), vehicle: saline with Tween-80) did it give?
**A.** 2 of 6

**Q.** For Cc1cc(N(CCOS(C)(=O)=O)CCOS(C)(=O)=O)ccc1C=Nc1ccc(-c2csc(Cc3ccccc3)n2)cc1, which T/C (dose: 12.5 mg/kg/injection, schedule: Q01DX009 (ip), vehicle: Klucel (hydroxypropylcellulose) (HPC)) is on record?
**A.** 128 % of control

**Q.** For CC1(C)OC(COCCOCCOCCCO)C(COCCOCCOCCCO)O1 (configuration not stated), which T/C (dose: 400.0 mg/kg/injection, schedule: Q01DX001 (ip), vehicle: saline) is on record?
**A.** 127 % of control

**Q.** Which results are given for CCC[CH2][Sn]1([CH2]CCC)[O]OC(c2ccc(OC)cc2)[O]1 (configuration not stated)?
**A.** survivor count (dose: 12.5 mg/kg/injection, schedule: Q01DX009 (sc), vehicle: olive oil, sesame oil, peanut oil): 6 of 6; survivor count (dose: 25.0 mg/kg/injection, schedule: Q01DX009 (sc), vehicle: olive oil, sesame oil, peanut oil): 4 of 6

**Q.** How did the survivor count (dose: 2000.0 micrograms/kg/injection, schedule: Q04DX003 (ip), vehicle: saline) turn out when CCC1(O)CC2CN(CCc3c([nH]c4ccccc34)C(C(=O)OC)(c3cc4c(cc3OC)N(C)C3C(O)(C(=O)NCCSSCCNC(=O)C5(O)C(O)C6(CC)C=CCN7CCC8(c9cc(C%10(C(=O)OC)CC%11CN(CCc%12c%10[nH]c%10ccccc%12%10)CC(O)(CC)C%11)c(OC)cc9N(C)C58)C76)C(O)C5(CC)C=CCN6CCC43C65)C2)C1 (configuration not stated) was run?
**A.** 5 of 8

**Q.** What about the survivor count (dose: 3000.0 micrograms/kg/injection, schedule: Q04DX003 (ip), vehicle: saline) of the same compound?
**A.** 8 of 8

**Q.** What does the source list for FCc1nc2nc(Cl)c(Cl)nc2[nH]1?
**A.** survivor count (dose: 8.0 mg/kg/injection, schedule: Q01DX009 (ip), vehicle: saline): 6 of 6; survivor count (dose: 16.0 mg/kg/injection, schedule: Q01DX009 (ip), vehicle: saline): 2 of 6; survivor count (dose: 200.0 mg/kg/injection, schedule: Q04DX003 (ip), vehicle: saline): 0 of 6; survivor count (dose: 400.0 mg/kg/injection, schedule: Q04DX003 (ip), vehicle: saline): 0 of 6

**Q.** How did the survivor count (dose: 150.0 mg/kg/injection, schedule: Q01DX009 (ip), vehicle: saline with Tween-80) turn out when CCN1C(=O)C(=O)c2ccccc21 was run?
**A.** 6 of 6

**Q.** What about the survivor count [2] of the same compound?
**A.** 3 of 6

**Q.** COc1ccc(NC(=O)Oc2ccccc2Cc2ccccc2)cc1 was tested. Which survivor count (dose: 50.0 mg/kg/injection, schedule: Q04DX003 (ip), vehicle: Klucel (hydroxypropylcellulose) (HPC)) did it give?
**A.** 6 of 6

**Q.** Which results are given for COc1cc(NC(=O)N(CCCl)N=O)cc(OC)c1OC?
**A.** T/C (dose: 1.32 mg/kg/injection, schedule: Q04DX003 (ip), vehicle: saline + alcohol): 133 % of control; T/C (dose: 2.0 mg/kg/injection, schedule: Q04DX003 (ip), vehicle: saline + alcohol): 138 % of control; T/C (dose: 12.5 mg/kg/injection, schedule: Q01DX009 (ip), vehicle: saline + alcohol): 146 % of control; survivor count (dose: 50.0 mg/kg/injection, schedule: Q01DX009 (ip), vehicle: saline + alcohol): 6 of 6

**Q.** For CCNC(C)(C)C(Cl)c1ccc(Cl)s1 (configuration not stated), which survivor count (dose: 100.0 mg/kg/injection, schedule: Q01DX009 (ip), vehicle: Klucel (hydroxypropylcellulose) (HPC)) is on record?
**A.** 4 of 6

**Q.** What about the survivor count [6] of the same compound?
**A.** 4 of 6

**Q.** Which results are given for COc1cc(Cl)c(CC(=O)c2c[nH]c3ccccc23)cc1OC?
**A.** survivor count [5]: 5 of 6; survivor count [3]: 6 of 6

**Q.** Cc1ccc(Nc2ccc(Nc3ccc(C)cc3)c3c2C(=O)c2ccccc2C3=O)cc1 was tested. Which survivor count [7] did it give?
**A.** 6 of 6

**Q.** For CC(=O)C1CC2c3ccccc3C1c1ccccc12 (configuration not stated), which survivor count [3] is on record?
**A.** 6 of 6

**Q.** O=[N+]([O-])c1cc2c(c([N+](=O)[O-])c1)OCOC2 was tested. Which survivor count [1] did it give?
**A.** 5 of 6

**Q.** And the survivor count [7]?
**A.** 5 of 6

**Q.** How did the survivor count (dose: 400.0 mg/kg/injection, schedule: Q04DX002 (ip), vehicle: Klucel (hydroxypropylcellulose) (HPC)) turn out when CN(C)Cc1cc(C(C)(C)CC(C)(C)C)ccc1O was run?
**A.** 3 of 6

**Q.** How did the survivor count (dose: 4.0 mg/kg/injection, schedule: Q01DX009 (oral), vehicle: Klucel (hydroxypropylcellulose) (HPC)) turn out when CCc1nc(N)nc(N)c1-c1ccc(Cl)cc1 was run?
**A.** 5 of 10

**Q.** What about the survivor count (dose: 8.0 mg/kg/injection, schedule: Q01DX009 (oral), vehicle: Klucel (hydroxypropylcellulose) (HPC)) of the same compound?
**A.** 5 of 10

**Q.** What about the survivor count (dose: 32.0 mg/kg/injection, schedule: Q01DX009 (oral), vehicle: Klucel (hydroxypropylcellulose) (HPC)) of the same compound?
**A.** 8 of 10

**Q.** And the survivor count (dose: 64.0 mg/kg/injection, schedule: Q01DX009 (oral), vehicle: Klucel (hydroxypropylcellulose) (HPC))?
**A.** 4 of 10

**Q.** Which results are given for O=C(C(=O)C(Br)Br)C(Br)Br?
**A.** survivor count (dose: 12.5 mg/kg/injection, schedule: Q01DX009 (ip), vehicle: DMSO): 6 of 6; survivor count (dose: 25.0 mg/kg/injection, schedule: Q01DX009 (ip), vehicle: DMSO): 0 of 6

**Q.** Which survivor count (dose: 5.0 mg/kg/injection, schedule: Q01DX009 (ip), vehicle: alcohol) does the source give for Cc1n(C(C)C)c2c([n+]1C)C(=O)c1ccccc1C2=O here?
**A.** 0 of 6
